# Several values for one entry are separate records, joined by “and”; a condition that tells them apart may be missing. Equal values may be shown once. Among all 400,000 compounds or so, about 3,700 (0.93%) were called active. Inconclusive results, whose numbers are uncertain, are shown with a selection of clear calls. Calls follow the shape of the dose curve; as a rule, active = well fitted inhibition curve with a large enough effect; inconclusive = small, poorly fitted or top-dose-only effect, or another doubt; inactive = no such curve, though single readings can be large or run the other way. Where the call is inconclusive, the potency comes from a doubtful curve fit.
# By UniProt entry, the sequences of proteins in these tests, tags left out.
# UniProt P11473, whole entry, looked up: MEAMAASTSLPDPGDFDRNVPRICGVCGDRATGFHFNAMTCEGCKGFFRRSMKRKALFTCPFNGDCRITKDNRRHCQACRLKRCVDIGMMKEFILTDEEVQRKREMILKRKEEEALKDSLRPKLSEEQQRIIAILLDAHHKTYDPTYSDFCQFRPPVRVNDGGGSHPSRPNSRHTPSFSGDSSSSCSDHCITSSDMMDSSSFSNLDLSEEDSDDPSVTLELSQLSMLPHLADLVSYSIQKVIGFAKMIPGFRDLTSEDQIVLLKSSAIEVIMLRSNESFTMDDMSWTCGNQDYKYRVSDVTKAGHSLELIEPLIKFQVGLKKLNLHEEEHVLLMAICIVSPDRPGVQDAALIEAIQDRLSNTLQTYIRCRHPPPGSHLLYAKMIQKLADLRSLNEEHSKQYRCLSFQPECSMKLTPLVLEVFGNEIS
# Target: Vitamin D3 receptor (Homo sapiens) (UniProt P11473)
# Test: Inhibitors of the vitamin D receptor (VDR): qHTS
# Details: VDR-SRC2-3 peptide fluorescence polarization, 2 h; max response, negative = inhibition: active compounds read low
# Summary of the method: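 Fluorescence polarization assay measuring small-molecule disruption of VDR binding to the coregulator peptide SRC2-3. Compounds were pin-transferred (23 nl) into the reagent mix and incubated 2 h at room temperature before reading.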
# % is scaled to controls: 0 for no effect and ±100 for the full control effect; potency is read from the fitted curve at half-maximal effect.
Structure (SMILES),Potency,"max response, negative = inhibition"
CCOc1ccccc1OCCCNCc1ccccc1,"inconclusive: 89.1 µM [inhibitor, partial curve, poor fit]",
COc1ccc(NC(=O)c2cc3ccccc3cc2OC)cc1,"inconclusive: 50.1 µM [inhibitor, partial curve, poor fit]",
Cc1ccc(/C=c2\sc3nc(-c4cccnc4)nn3c2=O)cc1,"inconclusive: 25.1 µM [inhibitor, partial curve, poor fit]",
Nn1cnc2scc(-c3ccc(Cl)cc3)c2c1=O,,inactive: -7.67%
C=CCn1c(SCC(=O)c2ccccc2)nnc1-c1ccc2c(c1)OCO2,"inconclusive: 89.1 µM [inhibitor, single point]",
Cc1cccc(N2Cc3ccc(Br)cc3C2)c1,,inactive: -5.21%
O=C(O)/C=C/C(=O)c1ccc(O)cc1,"inconclusive: 20 µM [inhibitor, full curve]",
Cc1nnc(SCC2=C(C(=O)O)N3C(=O)C(NC(=O)COc4ccccc4)C3SC2)s1 (stereo not given),"inconclusive: 56.2 µM [inhibitor, partial curve]",
C/C(=N/NC(=O)c1ccoc1C)c1cccc(NC(=O)C2CC2)c1,"inconclusive: 89.1 µM [inhibitor, single point]",
Nc1nc(=S)c2ncn(C3OC(CO)C(O)C3O)c2[nH]1 (stereo not given),active: 70.8 µM,
O=C(O)C(=Cc1cc2c(cc1[N+](=O)[O-])OCO2)c1cc2c(cc1Br)OCO2,"inconclusive: 70.8 µM [inhibitor, partial curve, poor fit]",
COCCNC(=S)N/N=C/c1ccc(-c2ccc([N+](=O)[O-])cc2)o1,"inconclusive: 11.2 µM [inhibitor, partial curve, poor fit]",
Cc1ncoc1C(=O)Nc1ncc([N+](=O)[O-])s1,active: 89.1 µM,
Cc1cc(C)c2cc3c(N)c(C(=O)N4CCOCC4)sc3nc2c1,"inconclusive: 89.1 µM [inhibitor, single point]",
COc1ccc(N=CC2=C(O)CC(c3ccccc3)CC2=O)c(OC)c1 (stereo not given),"inconclusive: 25.1 µM [inhibitor, partial curve, poor fit]",
NC(=O)c1ccccc1NC(=S)NC(=O)CCc1ccccc1,"inconclusive: 56.2 µM [inhibitor, partial curve, poor fit]",
O=S(=O)(NCCn1cccc1)c1ccc2ccccc2c1,"inconclusive: 100 µM [inhibitor, single point]",
O=[N+]([O-])c1ccc(Cl)c(CN2CCC(O)CC2)c1,"inconclusive: 22.4 µM [inhibitor, partial curve, poor fit]",
CCN1C/C(=C/c2ccc(N3CCOCC3)cc2)C(=O)/C(=C/c2ccc(N3CCOCC3)cc2)C1,"inconclusive: 7.94 µM [inhibitor, partial curve, poor fit]",
CC(Sc1ncn[nH]1)C(=O)c1c(N)n(C)c(=O)n(C)c1=O (stereo not given),,inactive: 0.44%

# Quoted at random: three records from the list
Structure (SMILES),Potency,"max response, negative = inhibition"
O=S(=O)(NCCn1cccc1)c1ccc2ccccc2c1,"inconclusive: 100 µM [inhibitor, single point]",
COc1ccc(NC(=O)c2cc3ccccc3cc2OC)cc1,"inconclusive: 50.1 µM [inhibitor, partial curve, poor fit]",
C=CCn1c(SCC(=O)c2ccccc2)nnc1-c1ccc2c(c1)OCO2,"inconclusive: 89.1 µM [inhibitor, single point]",

# (next part)

Structure (SMILES),Potency,"max response, negative = inhibition"
CSc1nc(O)c(C(c2ccc(F)cc2)c2c(O)nc(SC)[nH]c2=O)c(=O)[nH]1,"inconclusive: 39.8 µM [inhibitor, partial curve, poor fit]",
O=c1cc(N2CCCCC2)c(-c2ccccc2)nn1Cc1ccccc1,"inconclusive: 79.4 µM [inhibitor, partial curve, poor fit]",
Cc1cc(C)c2c(=O)n(CC(=O)NC3CCCC3)sc2n1,active: 10 µM,
COCCNC(=O)/C(C#N)=C/c1ccc(OCc2ccc(F)cc2)cc1,"inconclusive: 79.4 µM [inhibitor, partial curve, poor fit]",
O=C(O)c1ccc2[nH]c3c(c2c1)CSCC3,active: 44.7 µM,
CC(C)(C)C1CCc2onc(C(=O)Nc3sc4c(c3C(N)=O)CCCC4)c2C1 (stereo not given),active: 79.4 µM,
CC(=O)N1Cc2ccccc2CC1C(=O)N1CCN(c2ccccc2)CC1 (stereo not given),"inconclusive: 89.1 µM [inhibitor, single point]",
CC[C@]12c3[nH]c4cc(-c5ccco5)ccc4c3CCN1C(=O)[C@@H](CC(=O)NCCCOC)C[C@@H]2C(=O)N1CCN(C(=O)c2ccco2)CC1,"inconclusive: 79.4 µM [inhibitor, partial curve, poor fit]",
O=C(O)c1ccc2c(c1)C(=O)/C(=C/c1ccccc1)C2=O,"inconclusive: 89.1 µM [inhibitor, partial curve, poor fit]",
O=C(CCN1CCN(c2ccc([N+](=O)[O-])cc2)CC1)c1ccc(Cl)cc1,active: 25.1 µM,
CC1=C(C(=O)Nc2ccc(Cl)cc2)C(C(C)C)n2nc(SCc3cccc(C)c3)nc2N1 (stereo not given),"inconclusive: 89.1 µM [inhibitor, single point]",
Cc1cccc(-c2n[nH]c(=S)n2/N=C/C=C/c2ccco2)c1,"inconclusive: 89.1 µM [inhibitor, single point]",
O=C(CCCNC(=O)c1ccc(Cl)cc1)Nc1ccc(S(=O)(=O)Nc2ncccn2)cc1,"inconclusive: 39.8 µM [inhibitor, single point]",
Cc1nnc(NC(=O)c2nc(S(=O)(=O)Cc3ccccc3)ncc2Cl)s1,"inconclusive: 28.2 µM [inhibitor, partial curve, poor fit] and inconclusive: 25.1 µM [inhibitor, full curve, poor fit]",
Cc1cc2nc3ccc(=[N+](C)C)cc-3sc2cc1N,"inconclusive: 1.12 µM [inhibitor, full curve, poor fit]",
COc1ccc(C)cc1NC(=O)C(=O)NCCc1csc(-c2ccc(C)cc2)n1,,inactive: 0.389%
COc1cc(C(c2c(O)nc(SC)[nH]c2=O)c2c(O)nc(SC)[nH]c2=O)cc(OC)c1OC,"inconclusive: 28.2 µM [inhibitor, full curve, poor fit]",
CCCCC(CC)Cn1c(O)c(/C=C2\C=NN=C2c2ccccc2)sc1=S (stereo not given),,inactive: -8.55%
C/C(=N\NC(=S)Nc1c(C)cccc1C)c1ccc(OC(F)F)cc1,"inconclusive: 89.1 µM [inhibitor, single point]",
COC(=O)c1ccc(N2NC(=O)/C(=C/c3cc(OC)c(O)c(OC)c3)C2=O)cc1,"inconclusive: 79.4 µM [inhibitor, partial curve]",

# — PubChem BioAssay AID504847 (National Center for Advancing Translational Sciences (NCATS), 2011)
